Test results taken from PubChem BioAssay AID445 (National Center for Advancing Translational Sciences (NCATS), 2006).
The other results are listed elsewhere or left out. These are further read-outs of the screen, such as a control signal, another cell line or another target. No call is given for them. The list favours compounds with an active or inconclusive main result. The note in brackets gives the kind of curve behind each potency; many fits are weak.

Experiment: IkB Signaling
Conditions: ABC-DLBCL IkBa-CBG/CBR dual luciferase ratio (green luciferase fused to IkBa over red control in OCI-Ly3 lymphoma cells), 4 h
Procedure, shortened: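 Luminescence ratio of IκBα-fused green versus native red beetle luciferase in OCI-Ly3 cells, 4 h post-doxycycline with compound; red signal alone, scaled from basal (0%) to zero light (-100%), flagged nonspecific or cytotoxic effects.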

[1] = measured here: control luc red channel unless noted

With `COc1ccc2c(c1)c(=O)c(C(=O)c1ccc(Cl)cc1)cn2CC(=O)Nc1ccc2c(c1)OCCO2` the AC50 (measured here: IkB-luc green channel) was 39.8 µM [rising, single point] and the AC50 (measured here: control luc red channel) was 15.8 µM [falling, partial curve].
For `O=C1CC2(CCCC2)CC(=O)N1CCCCN1CCN(c2ncccn2)CC1`, the AC50 [1] was 12.6 µM [rising, partial curve, poor fit] [measured here: IkB-luc green channel].
With `CCOc1cc(C2C(C(=O)OC)=C(C)NC3=C2C(=O)c2ccccc23)cc(Br)c1OCC` (configuration not stated) the AC50 [1] was 15.8 µM [falling, partial curve].
With `COc1ccc(CNC(=O)CS(=O)(=O)c2cccc3nsnc23)cc1` the AC50 [1] was 1 µM [rising, full curve].
In the case of `Cc1ccc(OC(=O)CSc2nnc(-c3cccs3)o2)c(C)c1`, the AC50 [1] is reported as 7.94 µM [falling, partial curve].
With `CC1=C(C(=O)OC2CCCCCC2)C(c2ccc(Cl)cc2)CC(=O)N1` (configuration not stated) the AC50 [1] was 25.1 µM [falling, single point].
With `CC(=O)OCC(=O)[C@@]1(O)CC[C@@H]2[C@H]3CCC4=CC(=O)CC[C@]4(C)[C@]3(F)[C@@H](O)C[C@@]21C` the AC50 [1] was 12.6 nM [rising, full curve] [measured here: IkB-luc green channel].
With `Cc1cc(C)n(-c2ccc(C(=O)N3CCc4ccccc43)cc2)n1` the AC50 [1] was 25.1 µM [falling, partial curve].
In the case of `CCc1cc2cccc(C)c2nc1SCC(=O)N1CCN(C(=O)c2ccco2)CC1`, the AC50 [1] is reported as 25.1 µM [falling, partial curve].
For `Cc1cccc(C(=O)Nc2ccc(S(=O)(=O)N3CCCCC3c3cccnc3)cc2)c1` (configuration not stated), the AC50 [1] was 20 µM [falling, partial curve].
With `Cc1ccc(-n2ncc3c(N4CCN(Cc5ccccc5)CC4)ncnc32)cc1` the AC50 [1] was 12.6 µM [falling, partial curve].
For `Cc1ccc(CNC(=O)C(C)n2c(=O)cc(-c3ccccc3)c3c(C)nn(C)c32)cc1` (configuration not stated), the AC50 [1] was 39.8 µM [falling, single point].
With `Cc1ccc2nc(-c3c[nH]c4ccccc34)c(Nc3ccc(F)cc3)n2c1` the AC50 [1] was 0.0126 µM [falling, full curve].
With `O=C(CN(C1CC1)S(=O)(=O)c1ccc(S(=O)(=O)NC2CCCCC2)cc1)Nc1ccccc1` the AC50 [1] was 15.8 µM [falling, partial curve].
For `COc1ccccc1N1CCN(C(=O)c2ccc3c(c2)CCN3S(=O)(=O)c2ccccc2)CC1`, the AC50 [1] was 12.6 µM [falling, partial curve].
In the case of `COc1ccc2c(Sc3ccccc3)c(C(=O)NCc3cc(Br)ccc3OC)[nH]c2c1`, the AC50 [1] is reported as 3.16 µM [falling, full curve].
For `CCCn1ccc2c(OCC(=O)Nc3ccc(OC)c(OC)c3)cccc2c1=O`, the AC50 [1] was 31.6 µM [falling, partial curve].
For `COc1ccccc1CNC(=O)c1ccc(CSc2nc3ccncc3n2Cc2cccc(F)c2)cc1`, the AC50 [1] was 15.8 µM [falling, partial curve].
With `Cc1ccc2c(=O)cc(C(=O)Nc3nc4ccc(Cl)cc4s3)oc2c1` the AC50 [1] was 1.58 µM [falling, full curve].
In the case of `Cc1cccc(-c2cc3nc4c(c(N5CCOCC5)n3n2)CCCC4)c1`, the AC50 [1] is reported as 20 µM [falling, single point].
In the case of `COc1ccc(CCNc2nc3c(c(=O)n(C)c(=O)n3C)n2Cc2ccccc2Cl)cc1OC`, the AC50 [1] is reported as 39.8 µM [falling, single point].
For `O=C(CSc1nnc(-c2ccc(Cl)cc2)n1Cc1ccco1)Nc1ccc2c(c1)OCCO2`, the AC50 [1] was 31.6 µM [falling, partial curve].
For `Cc1csc2nc(-c3cccc(NC(=O)c4c(F)cccc4F)c3)cn12`, the AC50 [1] was 39.8 µM [falling, single point].
For `CCOc1ccc(NC(=O)c2ccc(N)cc2)cc1`, the AC50 [1] was 12.6 µM [falling, partial curve].
With `O=C(Nc1ccc(S(=O)(=O)N(Cc2ccccc2)c2ccccc2)cc1)c1ccc(F)cc1` the AC50 [1] was 5.01 µM [falling, partial curve].
In the case of `O=C(CCc1ccccc1)N1CCc2c([nH]c3ccccc23)C1c1ccc(F)cc1` (configuration not stated), the AC50 [1] is reported as 12.6 µM [falling, partial curve].
With `CN1C(=O)c2ccccc2Sc2ccc(NC(=O)c3ccc(C#N)cc3)cc21` the AC50 [1] was 25.1 µM [falling, partial curve].
With `COc1ccc(-c2cc(C(=O)Nc3c(C)n(C)n(-c4ccccc4)c3=O)no2)cc1` the AC50 [1] was 15.8 µM [falling, partial curve].
With `COc1cc(CNc2ccc3[nH]c(=O)[nH]c3c2)cc(Cl)c1OCc1ccc(F)cc1` the AC50 [1] was 0.0631 µM [falling, full curve].
With `Cc1nn(C(C)(C)C)c(OC(=O)c2c(F)cccc2F)c1Sc1ccccc1` the AC50 [1] was 25.1 µM [falling, single point].
In the case of `COc1cccc(NC(=O)C2CCN(c3nnc(-n4c(C)ccc4C)s3)CC2)c1`, the AC50 [1] is reported as 31.6 µM [falling, single point].
For `COc1cccc(CN2CCCN(S(=O)(=O)c3ccc(Br)cc3)CC2)c1`, the AC50 [1] was 20 µM [falling, partial curve].
In the case of `Cc1ccc(CNC(=O)C2CCCN(Cc3nc(-c4cccc(C)c4)oc3C)C2)cc1` (configuration not stated), the AC50 [1] is reported as 39.8 µM [falling, single point].
In the case of `Cc1ccc(-c2nc3c(c(SCC(=O)Nc4cccc(C(=O)O)c4)n2)Cc2cccc(C)c2O3)cc1`, the AC50 [1] is reported as 10 µM [falling, partial curve].
With `O=C(CSc1nc2sc3c(c2c(=O)[nH]1)CCCC3)Nc1ccccc1F` the AC50 [1] was 15.8 µM [falling, partial curve].
With `Cc1ccc(NC(=O)CCn2cnc3onc(-c4ccc(F)cc4)c3c2=O)c(Br)c1` the AC50 [1] was 0.01 µM [falling, full curve, poor fit].
For `CC(=O)N1C=CN(C(C)=O)C(c2cn(C)c3ccccc23)C1c1cn(C)c2ccccc12` (configuration not stated), the AC50 [1] was 31.6 µM [falling, single point].
In the case of `Cc1ccccc1C(=O)Nc1cccc(C(=O)OCc2cc(=O)n3nc(C4CC4)sc3n2)c1`, the AC50 [1] is reported as 3.98 µM [falling, full curve].
With `Cc1ccc(C)c(CN2C(=O)c3ccccc3Sc3ccc(C(=O)NCc4ccc5c(c4)OCO5)cc32)c1` the AC50 [1] was 6.31 µM [falling, partial curve].
With `COc1ccc(NC(=O)c2c(NC(=O)c3cccc(C)c3)sc3c2CCCC3)cc1` the AC50 [1] was 7.94 µM [falling, full curve].
With `CC(=O)c1cccc(NC(=O)c2ccc3nc(C(C)C)oc3c2)c1` the AC50 [1] was 31.6 µM [falling, single point].
For `O=C1c2oc3ccccc3c(=O)c2C(c2cccc(Br)c2)N1c1ccccn1` (configuration not stated), the AC50 [1] was 39.8 µM [falling, single point].
In the case of `CCCCN(C)C(=O)Cn1cnc2sc(C)c(S(=O)(=O)N3CCN(c4ccccc4OC)CC3)c2c1=O`, the AC50 [1] is reported as 3.16 µM [falling, partial curve].
In the case of `CCOC(=O)c1[nH]c2ccccc2c1NC(=O)c1cc(OCC)c(OCC)c(OCC)c1`, the AC50 [1] is reported as 1.26 µM [falling, full curve, poor fit].
With `NC(=O)c1sc(=S)n(-c2ccc(Br)cc2)c1N` the AC50 [1] was 39.8 µM [falling, single point].
With `CCOC(=O)N1CCC(Nc2ccc3nnc(-c4ccccc4)n3n2)CC1` the AC50 [1] was 10 µM [falling, partial curve].
In the case of `COc1ccc(-c2noc(CSc3nnc(-c4ccncc4)n3-c3ccc(C)c(C)c3)n2)cc1`, the AC50 [1] is reported as 31.6 µM [falling, single point].
For `Clc1ccc(Nc2nc(-c3ccccc3)c3cc(Cl)ccc3n2)cc1`, the AC50 [1] was 20 µM [falling, partial curve].
For `Cc1cc(C)n(CC(O)COc2cccc(OCC(O)Cn3nc(C)cc3C)c2)n1` (configuration not stated), the AC50 [1] was 20 µM [falling, partial curve].
In the case of `N#C/C(=C\c1ccc(-c2ccc(C(=O)O)cc2)o1)c1nc2ccccc2[nH]1`, the AC50 [1] is reported as 0.316 µM [falling, full curve].
With `CCCCOc1ccc(C(=O)N(Cc2nc(-c3ccc(Cl)cc3)no2)C(C)C)cc1` the AC50 [1] was 25.1 µM [falling, single point].
For `Cn1c(=O)oc2cc(S(=O)(=O)N3CCC(C(=O)N4CCN(c5cccc(Cl)c5)CC4)CC3)ccc21`, the AC50 [1] was 12.6 µM [falling, partial curve].
In the case of `CCOc1ccc(CCNC(=O)c2ccc(CS(=O)Cc3ccc(Cl)cc3)o2)cc1` (configuration not stated), the AC50 [1] is reported as 25.1 µM [falling, partial curve].
In the case of `Nc1cccc(-c2nc3ccc(N)cc3s2)c1`, the AC50 [1] is reported as 25.1 µM [falling, single point].
In the case of `CC(C)c1nc(SCC(=O)N2CCCC2)c2ccccc2n1`, the AC50 [1] is reported as 31.6 µM [falling, single point].
For `CC(C)c1ccc(NC(=O)C(Cc2ccccc2)NS(=O)(=O)c2ccc3c(c2)CCC(=O)N3)cc1` (configuration not stated), the AC50 [1] was 39.8 µM [falling, partial curve].
For `COc1cc2ncc3c(-c4ccccc4)nn(-c4ccc(C)cc4)c3c2cc1OC`, the AC50 [1] was 20 µM [falling, partial curve].
With `Cc1ccc(OCC(=O)Nc2ccc3nc(SCC(=O)N(C)c4ccccc4)sc3c2)cc1` the AC50 [1] was 7.94 µM [falling, full curve].
With `COc1cc(NC(=O)c2ncn(-c3ccccc3)n2)cc(OC)c1` the AC50 [1] was 3.98 µM [falling, full curve].
In the case of `Cn1ncc(C(=O)N2CCN(c3ccccc3F)CC2)c1C1CCN(C(=O)OC(C)(C)C)CC1`, the AC50 [1] is reported as 39.8 µM [falling, single point].
In the case of `C/C(CCc1oc2ccccc2c1-c1ccc(C)o1)=N/O`, the AC50 [1] is reported as 31.6 µM [falling, single point].
